Measured values published in patent US20240368534A1 (priority 2021, published 2024).
The name of at least one read-out is uncertain.

Target: T1, organophosphate hydrolase (OPH) displayed on E. coli (Brevundimonas diminuta, UniProt P0A434)
T1 construct: expressed in transfected cells; host or cells: E. coli BL21 (DE3) carrying pSKB3-INPNC-OPH, IPTG-induced, lyophilized whole cells
Type: biochemical, Pseudomonas diminuta

Structure (SMILES) | catalytic efficiency (Vmax/KM)
CCOP(=O)(OCC)Oc1ccc([N+](=O)[O-])cc1 [paraoxon] | 0.079 ± 0.13 min⁻¹
CCOP(=S)(OCC)Oc1ccc([N+](=O)[O-])cc1 [parathion] | 0.104 min⁻¹
